In publication PMC9550257:
These are yes or no findings as the source states them, for the method shown. In cells and extracts the contact can be indirect. Some entries that bind do so weakly or less than the wild type. Each block holds one substance with its values, some of them ahead of it.

The chains behind the UniProt entries cited, without tags or fusion partners.
UniProt Q93009: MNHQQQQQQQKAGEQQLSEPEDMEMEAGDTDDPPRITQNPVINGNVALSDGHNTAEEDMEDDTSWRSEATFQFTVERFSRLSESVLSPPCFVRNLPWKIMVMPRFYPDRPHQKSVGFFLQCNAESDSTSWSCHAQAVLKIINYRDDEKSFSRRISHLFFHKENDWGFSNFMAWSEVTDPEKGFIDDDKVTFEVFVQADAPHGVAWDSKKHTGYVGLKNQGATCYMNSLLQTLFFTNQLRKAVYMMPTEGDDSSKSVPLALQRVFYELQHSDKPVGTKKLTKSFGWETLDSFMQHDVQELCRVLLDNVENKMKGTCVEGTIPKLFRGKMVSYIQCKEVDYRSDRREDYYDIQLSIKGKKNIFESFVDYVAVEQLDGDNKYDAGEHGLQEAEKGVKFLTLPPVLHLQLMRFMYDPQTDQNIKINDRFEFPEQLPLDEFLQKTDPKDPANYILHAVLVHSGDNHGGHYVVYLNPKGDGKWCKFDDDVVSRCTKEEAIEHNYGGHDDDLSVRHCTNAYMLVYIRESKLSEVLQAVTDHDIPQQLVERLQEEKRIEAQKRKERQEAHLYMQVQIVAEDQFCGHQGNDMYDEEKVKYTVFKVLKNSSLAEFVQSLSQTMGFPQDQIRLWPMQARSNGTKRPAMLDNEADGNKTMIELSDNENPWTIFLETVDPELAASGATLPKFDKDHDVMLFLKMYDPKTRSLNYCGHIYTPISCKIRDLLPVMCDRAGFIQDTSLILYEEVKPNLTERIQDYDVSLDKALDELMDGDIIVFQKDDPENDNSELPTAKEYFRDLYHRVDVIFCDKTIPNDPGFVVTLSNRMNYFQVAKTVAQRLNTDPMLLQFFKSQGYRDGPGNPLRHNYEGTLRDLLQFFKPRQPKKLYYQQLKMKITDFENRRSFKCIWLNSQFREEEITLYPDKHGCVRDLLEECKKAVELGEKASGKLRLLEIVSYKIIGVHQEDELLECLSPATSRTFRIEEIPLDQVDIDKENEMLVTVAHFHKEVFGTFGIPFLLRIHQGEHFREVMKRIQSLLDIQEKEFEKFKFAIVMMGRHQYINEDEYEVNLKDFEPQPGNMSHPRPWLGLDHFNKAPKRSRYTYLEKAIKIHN
UniProt O15205: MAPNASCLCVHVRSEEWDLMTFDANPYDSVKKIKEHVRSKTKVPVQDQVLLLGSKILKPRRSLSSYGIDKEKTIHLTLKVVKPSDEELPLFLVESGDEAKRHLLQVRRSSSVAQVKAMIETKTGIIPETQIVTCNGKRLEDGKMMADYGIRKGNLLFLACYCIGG

Columns and labels:
[1] = molecular target: USP7 (construct of the competitive GST pull-down) (UniProt Q93009); experiment: pull-down; called GST pull-down; HEK-293T cells transfected with the indicated constructs, lysed, IP with anti-His beads, GST binding detected; competition of Ub and FAT10 for USP7
[2] = molecular target: T1, checkpoint kinase 1 (CHK1) (human (in HK-2 cells)) (UniProt O14757); experiment: co-IP; HK-2 cells; FAT10 and CHK1 (Supplementary Figure 4)
T1 sequence: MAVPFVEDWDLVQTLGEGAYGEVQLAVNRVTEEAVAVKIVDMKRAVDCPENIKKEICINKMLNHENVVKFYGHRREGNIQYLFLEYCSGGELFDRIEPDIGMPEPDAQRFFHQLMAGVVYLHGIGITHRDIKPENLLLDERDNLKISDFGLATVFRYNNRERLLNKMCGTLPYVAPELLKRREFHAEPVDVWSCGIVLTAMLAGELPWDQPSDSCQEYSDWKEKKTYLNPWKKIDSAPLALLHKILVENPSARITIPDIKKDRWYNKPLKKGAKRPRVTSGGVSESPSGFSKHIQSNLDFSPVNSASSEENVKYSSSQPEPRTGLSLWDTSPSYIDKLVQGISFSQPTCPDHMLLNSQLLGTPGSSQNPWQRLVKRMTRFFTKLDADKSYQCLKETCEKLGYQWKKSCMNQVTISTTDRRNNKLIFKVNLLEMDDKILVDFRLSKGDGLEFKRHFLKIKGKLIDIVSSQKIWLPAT

[3] = molecular target: human leukocyte antigen-F adjacent transcript 10 (FAT10) (human (endogenous in HK-2)) (UniProt O15205); experiment: co-IP; HK-2 cells, with antibodies to endogenous USP7 and FAT10 (Supplementary Figure 5A)

- binding [1]: binds
Substance: FAT10 (construct of the competitive GST pull-down) (from UniProt O15205 1-165)

- binding [2]: no binding
Substance: human leukocyte antigen-F adjacent transcript 10 (FAT10) (from UniProt O15205 1-165)

- binding [3]: binds
Substance: ubiquitin specific protease 7 (USP7) (from UniProt Q93009 1-1102) (enzyme)
